Reference: PubChem BioAssay AID493027 (The Scripps Research Institute Molecular Screening Center, 2011)
In all, about 2,000 compounds went through this assay and about 45 (2%) were called active.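 The calls were made as follows: active = inhibition above the screen-wide mean inhibition plus 3 SD (cut at about 44% in these data); inactive = the rest.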 The list shows a part of the results.

Amino acid sequences for entries named in this document (tags omitted). A change or cut given only in a name is not applied to a line headed by its entry.
UniProt O60240: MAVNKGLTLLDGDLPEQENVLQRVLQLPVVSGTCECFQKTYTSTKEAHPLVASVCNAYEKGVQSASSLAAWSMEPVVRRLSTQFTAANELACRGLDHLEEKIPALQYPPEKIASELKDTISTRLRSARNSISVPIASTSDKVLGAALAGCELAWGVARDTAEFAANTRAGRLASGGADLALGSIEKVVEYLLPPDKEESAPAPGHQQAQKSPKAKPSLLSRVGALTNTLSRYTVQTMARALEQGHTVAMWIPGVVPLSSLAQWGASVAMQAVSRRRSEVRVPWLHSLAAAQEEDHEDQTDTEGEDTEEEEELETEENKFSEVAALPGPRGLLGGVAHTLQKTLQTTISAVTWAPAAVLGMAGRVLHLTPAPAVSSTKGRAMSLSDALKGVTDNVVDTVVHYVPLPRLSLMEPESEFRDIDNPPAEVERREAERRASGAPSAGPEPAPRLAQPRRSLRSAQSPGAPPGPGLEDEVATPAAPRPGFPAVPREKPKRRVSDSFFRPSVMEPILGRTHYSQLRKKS
UniProt Q8WTS1: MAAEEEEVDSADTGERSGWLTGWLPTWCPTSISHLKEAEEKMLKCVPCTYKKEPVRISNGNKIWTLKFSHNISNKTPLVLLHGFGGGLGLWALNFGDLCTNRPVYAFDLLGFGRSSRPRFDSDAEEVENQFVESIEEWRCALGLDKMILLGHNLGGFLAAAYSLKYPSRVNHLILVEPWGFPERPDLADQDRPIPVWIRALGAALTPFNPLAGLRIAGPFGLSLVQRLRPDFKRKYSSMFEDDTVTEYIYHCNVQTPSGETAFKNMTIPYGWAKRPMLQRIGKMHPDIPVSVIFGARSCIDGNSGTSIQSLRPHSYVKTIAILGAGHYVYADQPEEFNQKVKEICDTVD

biological target: Perilipin-1 (Homo sapiens) + 1-acylglycerol-3-phosphate O-acyltransferase ABHD5 (Homo sapiens) (UniProt O60240+Q8WTS1); experiment: blockers of ABHD5 binding to perilipin-1 – cell lysate, split luciferase complementation, luminescence, NIH validation set, pilot screen (AID 493027);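 also: 0% = DMSO wells with the 100% control not disclosed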; conditions: split G. princeps luciferase complementation, 4 h; at 7.9 µM, stronger effect = higher value

| SMILES | inhibition |
| --- | --- |
| COc1ccc2c(c1)C=CC1(O2)N(CCO)c2ccccc2C1(C)C (stereo not drawn) | active: 45.5% |
| O=Cc1ccc(N2CCCCC2)cc1 | inactive: 0.88% |
| C[C@]12CC[C@H]3[C@@H](CCC4=CC(=O)CC[C@@]43C)[C@@H]1CC[C@@H]2C(=O)CO | inactive: 3.39% |
| COc1cc(C=NCC2OCCc3ccccc32)cc(OC)c1 (stereo not drawn) | inactive: -11% |
| COc1cc(NS(=O)(=O)c2ccc(N)cc2)nc(OC)n1 | inactive: -13.6% |
| O=C(O)c1cc(-c2ccc3c(c2)OCO3)nc2ccc(Br)cc12 | inactive: -1.85% |
| CC12COC3(C(=O)Nc4ccc(F)cc4)CC1CCC32C (stereo not drawn) | inactive: -6.36% |
| NS(=O)(=O)c1cc2c(cc1C(F)(F)F)NC(Cc1ccccc1)NS2(=O)=O (stereo not drawn) | inactive: 3.91% |
| COc1ccc([C@H]2[C@H](C(=O)OC(C)(C)C)N3N=Cc4ccccc4C3C23C(=O)c2ccccc2C3=O)cc1OC (stereo partly drawn) | inactive: -11.4% |
| O=C(N/C(=C/C=C\c1ccccc1)C(=O)N1CCOCC1)c1ccc(Br)cc1 | inactive: 2.29% |
| CC(CN1c2ccccc2Sc2ccccc21)N(C)C (stereo not drawn) | inactive: -9.88% |
| COc1ccc(NC(=O)N2CCCCC2c2cccnc2)cc1 (stereo not drawn) | inactive: -9.64% |
| Cc1cc(OCC(=O)C(C)(C)C)c2c(C)c(C)c(=O)oc2c1 | inactive: -3.63% |
| CCOC(=O)c1c(O)c2c([nH]c1=O)CCCC2 | inactive: -10% |
| Cc1ccc(OCCSc2ncccn2)c(C)c1 | inactive: -4.71% |
| O=C(Cc1ccccc1[N+](=O)[O-])NCc1ccncc1 | inactive: -10.2% |
| CC1(C)CC(=O)c2cn3c(nc2C1)nc1ccccc13 | inactive: -6.06% |
| Cc1ccc(C(=O)O)cc1NC(=O)c1cccs1 | inactive: -7.22% |
| O=C(NCCc1c[nH]c2ccccc12)OCCSS(=O)(=O)O | inactive: -17.4% |
| CCn1cc(C(=O)O)c(=O)c2cc(F)c(N3CCNCC3)cc21 | inactive: 0.57% |
| Cc1ccc(N2C(=O)c3ccccc3C2=O)cc1C | inactive: -2.87% |

| SMILES | inhibition |
| --- | --- |
| CN(CCc1cnn(C)c1)Cc1nc(CC2CC2)no1 | inactive: 2.86% |
| CCOC(=O)c1ccc2[nH]c(C)c(CCC(C)=O)c(=O)c2c1 | inactive: -7.73% |
| CCOC(=O)C1=C(C)NC(C)=C(C(=O)OC)C1c1cccc([N+](=O)[O-])c1 (stereo not drawn) | inactive: 8.95% |
| CC(=Nc1ccccc1)C1=C(O)CCCC1=O | inactive: 2.51% |
| O=c1c(C(c2ccccc2)c2c(O)sc3ccccc3c2=O)c(O)sc2ccccc12 | inactive: 0.1% |
| CCCCOc1ccc(OCCCN2CCOCC2)cc1 | inactive: -2.99% |
| COc1cc2ccc(=O)oc2c(O)c1OCC=C(C)C | inactive: -7.81% |
| COc1ccccc1C(=O)N=C1NC(=O)CC2C(=O)NCCN12 (stereo not drawn) | inactive: -15.4% |
| CC(=O)c1c[nH]c2ccc(C)cc2c1=O | inactive: -1% |
| O=C(NCC1CCCCN1)c1cc(OCC(F)(F)F)ccc1OCC(F)(F)F (stereo not drawn) | inactive: 2.26% |
| CC1CCc2cc(F)cc3c(=O)c(C(=O)O)cn1c23 (stereo not drawn) | inactive: 4.36% |
| CC1(C)CC(CC(=O)Nc2nccs2)(c2ccccc2)CCO1 (stereo not drawn) | inactive: -1.2% |
| Cc1ccc2c(c1)C1CN(C)CCC1N2S(=O)(=O)c1ccc(Oc2ccc([N+](=O)[O-])cc2)cc1 (stereo not drawn) | inactive: -5.75% |
| COc1cccc(N2C(=O)[C@H]3C(C(=O)c4cnccn4)=NN[C@H]3C2=O)c1 | inactive: 5.7% |
| COc1ccc(CNC(=O)N[C@H](C(=O)O)C(C)C)cc1OC | inactive: -7.79% |
| CS(=O)(=O)NCc1ccc(C(=O)NCc2ccccc2)cc1 | inactive: -12.2% |
| C/C(=N/N1CCN(Cc2cccc3ccccc23)CC1)c1cccnc1 | inactive: -7.82% |
| Cc1cccc(Nc2ncccc2C(=O)O)c1C | inactive: -0.47% |
| CC1(C)CC(=O)C(C2=NC(C)(C)Cc3ccccc32)=C(O)C1 | inactive: -6.62% |
| O=C1CCCCCN1Cc1ccccc1 | inactive: -0.49% |
| C#CCOc1ccc2c(C)cc(=O)oc2c1 | inactive: 1.91% |

Three entries from above, with bars between the fields.
SMILES | inhibition
CN(CCc1cnn(C)c1)Cc1nc(CC2CC2)no1 | inactive: 2.86%
CCOC(=O)C1=C(C)NC(C)=C(C(=O)OC)C1c1cccc([N+](=O)[O-])c1 (stereo not drawn) | inactive: 8.95%
Cc1ccc2c(c1)C1CN(C)CCC1N2S(=O)(=O)c1ccc(Oc2ccc([N+](=O)[O-])cc2)cc1 (stereo not drawn) | inactive: -5.75%

Additional entries.

| SMILES | inhibition |
| --- | --- |
| Cc1ccc2c(c1)OC(=O)CC2c1ccccc1 (stereo not drawn) | inactive: -5.39% |
| COCc1cc(=O)[nH]c(/N=C(\N)Nc2ccc(Oc3ccccc3)cc2)n1 | inactive: -1.38% |
| N/C(=N\OC(=O)CCCOc1ccc(Cl)cc1Cl)c1ccncc1 | inactive: 6.23% |
| CCOc1cc2c3c(c1)C(C)=CC(C)(C)N3C(=O)C2=O | active: 43.5% |
| CCn1c(N2CCN(CC(=O)c3c(C)n(C)c4ccc(OC)cc34)CC2)nc2c1c(=O)[nH]c(=O)n2C | inactive: 5.86% |
| COc1cc(C(=S)N(C)C)ccc1O | inactive: -6.41% |
| COc1ccc(C(=O)OCc2cc3cccc(C)c3[nH]c2=O)cc1 | inactive: -1.47% |
| COc1ccc(CCN(C)Cc2nc(Cc3ccc(OC)c(OC)c3)no2)cc1OC | inactive: -1.79% |
| Nc1nc2c(nc(SCc3ccccc3Br)n2C2OC(CO)C(O)C2O)c(=O)[nH]1 (stereo not drawn) | inactive: 5.62% |
| Cc1ccc(SCC(=O)Nc2nccs2)cc1 | inactive: 7.01% |
| Cc1nc(N)nc2c1CCCC2 | inactive: -5.16% |
| CC[n+]1c(C)sc2cc(C)ccc21 | inactive: 0.88% |
| CCc1cc(=O)oc2cc3occ(-c4ccc(OC)c(F)c4)c3cc12 | inactive: 11% |
| CSc1ccc(CN2CCN(CCC(C)C)C(CCO)C2)cc1 (stereo not drawn) | inactive: -2.37% |
| COc1ccc2cc(C(=O)Nc3ccc(S(N)(=O)=O)cc3)sc(=O)c2c1OC | inactive: -9.77% |
| Cc1ccc(NC(=O)CSc2nc(O)c(Cc3ccccc3)c(=O)n2-c2ccccc2)cc1 | inactive: 5.86% |
| COCCCN1C(=O)C(=O)/C(=C(/O)c2ccc3c(c2)CC(C)O3)C1c1cccnc1 (stereo not drawn) | inactive: -10.4% |
| COc1ccc(C(=O)c2oc3ccc(Br)cc3c2NC(C)=O)cc1 | inactive: 5.9% |
| O=C(CC1(O)C(=O)Nc2ccccc21)c1ccccc1O (stereo not drawn) | inactive: -0.86% |
| COc1ccc(-c2coc3cc(O)cc(O)c3c2=O)cc1 | inactive: 7.76% |
| COc1ccccc1C1C(C#N)=C(N)Oc2c1oc(CO)cc2=O (stereo not drawn) | inactive: -5.22% |
